In PubChem BioAssay AID2685 (National Center for Advancing Translational Sciences (NCATS), 2010):
This is one part of the list. Shown are side measurements of this screen, not its main read-out; they come without a call. The list favours compounds with an active or inconclusive main result. The note in brackets gives the kind of curve behind each potency; many fits are weak.

Experiment: qHTS Assay for Lipid Storage Modulators in Drosophila S3 Cells;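 for cell number change: cells counted by Cell Tracker Red CMTPX staining in the red channel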
Settings: BODIPY lipid droplet fluorescence, 18-24 h; for cell number change: measured here: cell count max response, cells fed with added oleic acid
In short: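 Drosophila S3 cells loaded with oleic acid (400 uM, as added) and compounds at several concentrations; lipid droplets imaged by 488-nm laser-scanning cytometry, 500–530 nm intensity and object ratio to cell channel. Percent activity normalized to 20 uM Triacsin C.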

[1] = measured here: lipid fluorescence (Fed channel) AC50, cells fed with added oleic acid
[2] = measured here: cell number channel AC50, cells fed with added oleic acid

SMILES	cell number change [%]	AC50 [1]	AC50 [2]
O=C(NC1CCCCC1)c1ccc(CN2CCOCC2)cc1	-5.87	146 nM [falling, single point]	
Cc1ccc(Oc2ccc(-c3nc(N)nc(N)n3)cc2)cc1			3260 nM [rising, single point]
Cc1cccc(C)c1NC(=O)CN(C)C(=O)c1cc(S(=O)(=O)N(C)C)ccc1N1CCCC1	36.4		29100 nM [rising, single point]
CCOC(=O)CN(C(=O)CSc1nnc(CNc2ccc(F)cc2)n1CC)c1ccc(F)cc1	52.4		29100 nM [rising, single point]
Cc1ccc(C(O)P(=O)(OCc2ccccc2)c2ccc(N(C)C)cc2)cc1 (stereo unspecified)	-15	11600 nM [falling, partial curve]	
CCCCNC(=O)c1sc(=S)n(-c2ccccc2OC)c1N	4.08		
Cn1c(=O)oc2cc(S(=O)(=O)NCc3cccnc3)ccc21	28.8		1460 nM [rising, full curve, poor fit]
Oc1ccc(-n2nnnc2SCc2ccccc2Br)cc1	-19.6	29100 nM [falling, single point]	
COc1ccc(CCNC(=O)CN2CCN(c3ccccc3Cl)CC2)cc1			6510 nM [rising, single point]
O=C1NN(c2ccc(Cl)c(Cl)c2)C(=O)/C1=C/c1ccc(-c2ccccc2C(=O)O)o1	1.42	6510 nM [rising, partial curve]	
N#C/C(=N/Nc1ccccc1[N+](=O)[O-])C(N)=S	75	9200 nM [rising, partial curve]	9200 nM [rising, partial curve, poor fit]
CCn1c(Cc2ccc(OC)cc2)nnc1SCC(=O)Nc1ccc(N2CCOCC2)cc1	-36.2		3.66 nM [falling, full curve, poor fit]
Cc1ccc(C)c(NC(=O)COc2cccc3c2CCN(Cc2ccccc2C)C3=O)c1	14.3		
COc1ccc(C(=O)N2CCCN(C)CC2)cc1S(=O)(=O)N(C)Cc1ccccc1	-10.1	2590 nM [rising, full curve, poor fit]	
O=C(CN1C(=O)COc2ccccc21)NC1CCCC1	12.5		
c1ccc(C2c3[nH]c4ccccc4c3CCN2Cc2cccn2-c2ccccn2)nc1 (stereo unspecified)	9.12		6510 nM [rising, single point]
Cc1ccc2c(c1)c1c(n2CC(O)CNC2CCCCC2)CCCC1 (stereo unspecified)	-4.96		
COc1ccc(CNC(=S)Nc2ccc(OC)cc2)cc1	-6.11		146 nM [falling, full curve, poor fit]
Cc1ccc2nc3ccc(N4CCCCCCC4)nn3c(=O)c2c1	-23.2	1840 nM [rising, partial curve]	
COCCCNS(=O)(=O)c1ccc2[nH]c3c(c2c1)CCCCC3	13.5	32600 nM [rising, partial curve, poor fit]	
CCC(CC)C(=O)Nc1cccc(C(=O)c2ccccc2)c1	160		18400 nM [rising, single point]
COc1ccc(C(=O)CN2C3=NCCCN3c3ccccc32)cc1OC	38	73.1 nM [rising, full curve]	73.1 nM [rising, full curve]

SMILES	cell number change [%]	AC50 [1]	AC50 [2]
COCCN1C(=O)Cc2c1nc(N)c1c(N)nc(N3CCN(c4ccc(F)cc4)CC3)c(C#N)c21	32.7		
CC1(c2nnc(Cc3ccccc3)o2)CC(c2ccccc2[N+](=O)[O-])=NO1 (stereo unspecified)	-32.9	20600 nM [falling, partial curve]	11600 nM [falling, partial curve]
Cc1ccc(CCN2CC(C(=O)NCCCN3CCN(C)CC3)CC2=O)cc1 (stereo unspecified)	6.04		
CCC(C)C(NC(=O)c1ccccc1NC(=O)c1ccccc1)C(=O)O (stereo unspecified)	22.9	5800 nM [rising, full curve]	
Cc1ccc(C(=O)O)cc1-c1ccc(/C=C2\SC(=O)N(CC(=O)Nc3ccccc3)C2=O)o1	31.2	23100 nM [rising, single point]	20600 nM [rising, single point]
CCCn1nc(C(=O)NNC(=O)CSC(C)C(=O)Nc2cc(C)on2)c2ccccc2c1=O (stereo unspecified)		16400 nM [rising, single point]	
COc1ccccc1NC(=O)c1sc2nc(Cc3ccccc3)cc(C(F)(F)F)c2c1N	-28.7		731 nM [rising, partial curve]
COc1c2occc2c(OC)c2c(=O)cc(C(F)(F)C(F)(F)F)oc12	-0.905		
CC1Cc2nc(SCC(=O)NC3CCCCC3)n(C)c(=O)c2S1 (stereo unspecified)			2060 nM [rising, partial curve]
CC(=O)Nc1cccc(NC(=O)C2CCCN2C(=O)Nc2ccc(C)cc2)c1 (stereo unspecified)	4.84		
CC(=O)Nc1ccc(S(=O)(=O)NCC2CCC(C(=O)NC(C)c3ccccc3)CC2)cc1 (stereo unspecified)	-6.85	6510 nM [falling, partial curve, poor fit]	
C=CCC1NS(=O)(=O)OC(CCc2ccccc2)C1O (stereo unspecified)	11.7		
COCCN(Cc1ccccc1)C(=O)C1CCN(S(=O)(=O)c2ccc3c(c2)OCCO3)CC1	-23.5	6510 nM [falling, full curve]	
COc1ccc(S(=O)(=O)Nc2c(C(=O)O)[nH]c3ccccc23)c(OC)c1	-8.09	4110 nM [falling, single point]	
COc1ccc(C)cc1S(=O)(=O)N1c2ccc(C)cc2C2CN(C)CCC21 (stereo unspecified)		6510 nM [rising, single point]	
COc1ccc(/C(O)=C2/C(=O)C(=O)N(Cc3ccco3)C2c2cccs2)cc1 (stereo unspecified)	-44.1	231 nM [falling, full curve]	7.31 nM [falling, full curve, poor fit]
COc1cccc(C(=O)CC(C(=O)O)c2ccc(F)cc2)c1 (stereo unspecified)	12.3	5.8 nM [falling, full curve, poor fit]	
CCC(C)n1c(SCC(=O)NC2CCCC2)nc2ccccc2c1=O (stereo unspecified)	24.3	461 nM [rising, full curve]	461 nM [rising, full curve, poor fit]
CSCCC(NC(=O)c1ccccc1Cl)C(=O)N1CC(C)OC(C)C1 (stereo unspecified)	-22.6	29100 nM [falling, single point]	
CSc1ccccc1NC(=S)Nc1ccccc1C(F)(F)F		164 nM [falling, full curve, poor fit]	
CCOP(=O)(OCC)/C(=N/OC(=O)c1ccccc1C)C(N)=O	8.91		6510 nM [rising, single point]
CN(Cc1ccc(F)cc1)C(=O)COc1ccc2ccccc2c1	4.44		

Retrieved one by one from above:
SMILES	cell number change [%]	AC50 [1]	AC50 [2]
Oc1ccc(-n2nnnc2SCc2ccccc2Br)cc1	-19.6	29100 nM [falling, single point]	
COc1c2occc2c(OC)c2c(=O)cc(C(F)(F)C(F)(F)F)oc12	-0.905		
O=C(NC1CCCCC1)c1ccc(CN2CCOCC2)cc1	-5.87	146 nM [falling, single point]	

Further records follow:

SMILES	cell number change [%]	AC50 [1]	AC50 [2]
O=C(NCC1(c2ccccc2)CCCC1)C1(c2ccccc2)CCCC1	-27.1	6510 nM [falling, partial curve, poor fit]	
Cc1ccnc(NC(=O)c2cccc(S(=O)(=O)NCc3ccccc3)c2)c1	-30	2590 nM [rising, single point]	1160 nM [falling, full curve, poor fit]
CCN1C(=O)/C(=C\c2cccs2)C(C(=O)OC)=C1C	-1.15	2060 nM [rising, partial curve]	517 nM [rising, full curve, poor fit]
CCOC(=O)CCN(Cc1ccccc1)S(=O)(=O)c1csc(C(N)=O)c1	-25.1		
CSCCC1NC(=O)N(CC(=O)N2N=C(c3ccc(Cl)cc3)CC2c2ccco2)C1=O (stereo unspecified)			411 nM [rising, partial curve, poor fit]
CN(CC(=O)Nc1ccccc1C(F)(F)F)C(=O)CSc1nc(N)cc(N)n1	-30.1	2310 nM [falling, single point]	51.7 nM [falling, full curve]
CC(C)Cc1nc(SCC(=O)N2CCCCC2)c2c(=O)n(C)c(=O)n(C)c2n1	2.79	1840 nM [falling, partial curve]	1300 nM [falling, partial curve, poor fit]
COc1ccc(C(CNC(=O)c2cc(F)c(F)c(F)c2F)N2CCOCC2)cc1 (stereo unspecified)	79		29100 nM [rising, single point]
Cc1cc(N2C(=O)C(=O)/C(=C(/O)c3ccccc3)C2c2cccs2)no1 (stereo unspecified)	5.21		
CC(=O)c1cccc(N2C(=NC(=O)CCc3ccccc3)SC3CS(=O)(=O)CC32)c1 (stereo unspecified)	-1.19		
O=c1c2c(n3nnnc3n1-c1ccccc1)-c1ccccc1CC21CCCC1	-1.25		
COc1cccc(-c2nnc(N(C)C(=O)C3CCOC3)s2)c1 (stereo unspecified)	-0.065		
CC1CC2(CCCC2)Nc2ccc(F)cc21 (stereo unspecified)	-23.7	32600 nM [falling, single point]	
CNC(=S)N/N=C/c1cc(C)ccc1C	62.2		
COc1ccc(-c2noc(C(C)NC(=O)c3ccco3)n2)cc1OC (stereo unspecified)	11.3		
Cc1nnc(N2CCCCC2)c2ccccc12	126		
COC(=O)c1ccc(NC(=S)NN2CCCCC2c2cccnc2)cc1 (stereo unspecified)	15.7	2590 nM [rising, full curve, poor fit]	
CCn1c(=O)c(C(=O)NCc2ccc3c(c2)OCO3)c(O)c2ccccc21	13.1		
CCOc1ccc(C(=O)Nc2ccc(Cc3ccncc3)cc2)cc1Br	-0.501	184 nM [rising, full curve, poor fit]	
Cc1cc(C)c(C#N)c(SCC(=O)N(CC(C)C)C2CCS(=O)(=O)C2)n1 (stereo unspecified)			651 nM [falling, single point]

Part of the list above in order of SMILES length, high to low.
SMILES	cell number change [%]	AC50 [1]	AC50 [2]
COc1ccccc1NC(=O)c1sc2nc(Cc3ccccc3)cc(C(F)(F)F)c2c1N	-28.7		731 nM [rising, partial curve]
COc1ccc(-c2noc(C(C)NC(=O)c3ccco3)n2)cc1OC (stereo unspecified)	11.3		
CC1CC2(CCCC2)Nc2ccc(F)cc21 (stereo unspecified)	-23.7	32600 nM [falling, single point]	
